Source: publication PMC12203921
These are yes or no findings as the source states them, for the method shown. Binding seen in cells or lysates may run through a third protein. A yes stands for co-enrichment or nearness to the bait. Other partners may have been found.

T1: coiled-coil domain-containing 13 (CCDC13) (mouse (endogenous in testis)) (UniProt D3YV10)
T1 sequence: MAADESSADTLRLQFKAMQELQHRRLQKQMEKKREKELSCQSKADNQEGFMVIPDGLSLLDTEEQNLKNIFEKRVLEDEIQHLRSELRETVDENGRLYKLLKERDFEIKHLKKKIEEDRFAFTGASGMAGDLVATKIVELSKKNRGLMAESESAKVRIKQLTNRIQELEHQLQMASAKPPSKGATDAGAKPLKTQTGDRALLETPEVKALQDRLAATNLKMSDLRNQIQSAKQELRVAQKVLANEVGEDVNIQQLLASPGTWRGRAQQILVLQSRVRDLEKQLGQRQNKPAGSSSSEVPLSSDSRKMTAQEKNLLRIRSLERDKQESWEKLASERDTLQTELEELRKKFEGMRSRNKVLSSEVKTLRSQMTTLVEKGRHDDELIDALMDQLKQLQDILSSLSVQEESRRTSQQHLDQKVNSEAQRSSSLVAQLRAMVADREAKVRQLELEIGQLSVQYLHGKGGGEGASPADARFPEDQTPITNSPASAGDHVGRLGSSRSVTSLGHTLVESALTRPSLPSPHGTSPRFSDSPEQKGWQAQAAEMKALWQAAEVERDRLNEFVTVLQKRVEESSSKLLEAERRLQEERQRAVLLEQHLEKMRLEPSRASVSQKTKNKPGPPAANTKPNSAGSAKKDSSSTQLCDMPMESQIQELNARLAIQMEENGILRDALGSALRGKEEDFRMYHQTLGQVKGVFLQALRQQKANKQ


Target: T1, coiled-coil domain-containing 13 (CCDC13) (mouse (endogenous in testis))
Test: affinity purification with mass spectrometry; immunoprecipitation with the CCDC13 antibody from mouse testis lysate, LC-MS of the precipitate

Row | Binder | binding
1 | BBS4 (protein, UniProt Q8C1Z7 1-520) MAEVKLGMKTQVPASVESQKPRSKKAPDFPIVEKQNWLIHLHYIRKDYEACKAVIKEQLQETQGLCEYAIYVQALIFRLEGNIQESLELFQTCAVLSPQCADNLKQVARSLFLLGKHKAATEVYNEAAKLNQKDWEICHNLGVCYTYLKQFNKAQDQLHSALQLNKHDLTYIMLGKIHLLQGDLDKAIEIYKKAVEFSPENTELLTTLGLLYLQLGVYQKAFEHLGNALTYDPANYKAILAAGSMMQTHGDFDVALTKYRVVACAIPESPPLWNNIGMCFFGKKKYVAAISCLKRANYLAPFDWKILYNLGLVHLTMQQYASAFHFLSAAINFQPKMGELYMLLAVALTNLEDIENARRAYVEAVRLDKCNPLVNLNYAVLLYNQGEKKSALAQYQEMEKKVNFLKDNSPLEFDSEMVEMAQKLGAALQVGEALVWTKPVKDPKTKHRTNSGSKSATLQQPLGSIQALGQAMSSAAAYRKILSGAVGAQLPKPPSLPLEPEPEPTVEASPTEASEQKKEK | binds
2 | CEP131 (protein, UniProt Q62036 1-1060) MKGSRTITATPEGSPEAVDLSLIGLPPPMSQRPGSASATRSIFRSMSVATGSEPRKKALEATGPGGPRAINNLRRSNSTTQVNQSWTGSPRPAEPTDFLMLFEGSTSGRRRVASLSKASSEKEATWNVLDEQPRGLALPASAQSPSTLDSALGPRRKECPLAPSFTANNRSNKGAVGNCVTTMVHNHYASSKMVSPPKSSNQTAPSLNNIVKAAAREGGEGSDLGKPRKNLSSASQSARGTTGLLRRREVTEEEAERFIHQVNQAAVTIQRWYRCQVQRRRAGAAALEHLLASKREGQRQRLGGGNLLELHRQEEAARKKAREEKARQARQAAIQVLQQKRAQKASEAEHRRPKDRPETRAPEQPRPMQEPGCVTHPKANNAGASIYPTGPADPCPPASESSPEQWQSPEDKPQDIHSQGEARQDLAVSGSSRGKARARATLDDLLDTLKLLEEEPEPLPHPKAYHKDRYAWTDEEEDANSLTADNLEKFGKLSAAPGPPDDGTLLSEAKLQSIMTFLDEMEKSGQERPAPWRESLVLEAGSGSEGSTSVMRLKLELEEKKQAMALLQRALAQQRDLTVRRVKETEKELTRQLRQQKEQYEATIQRHLSFIDQLIEDKKVLSEKCEAVVAELKHGDQRCRERVAQMQEQHELEIKKLKELMSATEKIRREKWINEKTKKIKEITVRGLEPEIQKLIAKHKQEVRRLRGLHEAELQQREEQAAQRHLRQAEELRQHLDREREVLGQQERERAQQRFEQHLEQEQRALEQQRRRLYNEVAEEKERLGQQAARQRAELEELRQQLEESSAALTRALRAEFERSREEQERRHQMELKALKDQLEAERQAWVASCAKKEEAWLLTRERELKEEIRKGRDQEIELVIHRLEADMTLAKEESERAAESRVKRVRDKYETELSELEQSERKLQERCSELKGRLGEAEGEKERLQSLVRQKEKELEDLRAVNTQMCSERASLAQVVRQEFAEQLAASQEETQRVKVELAELQARQQVELDEVHRRVKTALARKEAAVNSLRKQHEAAVKRADHLEELLEQHKGSSLSSK | binds
